PubChem BioAssay AID686937, Drosophila RNAi Screening Center | 2013

Test: 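Genes in the fly needed for secretion of protein constitutively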 (primary screen)
Cells: Drosophila S2 cells expressing secreted horseradish peroxidase
Knock-down reagent: long dsRNA against Drosophila genes
Timing: about 5.5 days (5 days dsRNA, then 12 h reporter induction)
Treatment: reporter expression induced after 5 days of dsRNA, read 12 h later; inducer not stated
Detection: 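After 5 days of dsRNA and 12 h of reporter induction, medium peroxidase read by chemiluminescence and scored as per-plate z-score; higher values mean more reporter released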
Direction: z-score: higher = more reporter secreted into medium
In all, the deposit lists about 23,000 reagents; this is an unselected part of those with a known target gene and a result. 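Reduced-secretion tags in replicate 1 do not always agree with the z-scores; no criterion for assigning the tags was given.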 Reagents against one gene are numbered here. Names joined by + are all predicted targets of the reagent. Not all columns of the deposit are shown. Not stated in the record: the amount of reagent.

The opening 12 records as a preview:
Target gene	reagent no.	z-score, replicate 1	z-score, replicate 2	z-score, replicate 3
Csp (GeneID 40459)	1	0.36	0.04	
CG5787 (GeneID 34684)	1	0.39	0.25	
Jabba (GeneID 37164)	1	0.12	0.16	
CG32069 + Blos2	1	-0.99	-1.25	
CG42238 (GeneID 7354398)	1	0.71	0.34	
cyc (GeneID 40162)	1	0.21	0.07	
Spn88Eb (GeneID 41829)	1	0.44	0.34	
CG32986 (GeneID 34208)	1	0.27	0.32	
CG31957 (GeneID 319046)	1	-0.83	0.26	
Myo31DF (GeneID 34445)	1	0.34	0.37	
Myo31DF (GeneID 34445)	2	-0.78	-0.27	
CG18746 (GeneID 59142)	1	0.35	-0.08	

The listing, from the first entry:
Target gene	reagent no.	z-score, replicate 1	z-score, replicate 2	z-score, replicate 3
Csp (GeneID 40459)	1	0.36	0.04	
CG5787 (GeneID 34684)	1	0.39	0.25	
Jabba (GeneID 37164)	1	0.12	0.16	
CG32069 + Blos2	1	-0.99	-1.25	
CG42238 (GeneID 7354398)	1	0.71	0.34	
cyc (GeneID 40162)	1	0.21	0.07	
Spn88Eb (GeneID 41829)	1	0.44	0.34	
CG32986 (GeneID 34208)	1	0.27	0.32	
CG31957 (GeneID 319046)	1	-0.83	0.26	
Myo31DF (GeneID 34445)	1	0.34	0.37	
Myo31DF (GeneID 34445)	2	-0.78	-0.27	
CG18746 (GeneID 59142)	1	0.35	-0.08	
nclb (GeneID 36150)	1	0.44	0.43	
Rox8 (GeneID 42848)	1	0.14	0.23	
ClC-b (GeneID 36381)	1	0.3	0.26	
Tbh (GeneID 31718)	1	0.35	0.63	
Acsx1L (GeneID 42351)	1	0.34	0.22	
CG10508 (GeneID 40342)	1	-0.03	0.22	
CG10508 (GeneID 40342)	2	0.36	0.52	
CG5883 (GeneID 39352)	1	0.47	0.45	
Sardh (GeneID 37026)	1	0.18	0.27	
CG12744 (GeneID 36024)	1	0.31	0.34	
ftz (GeneID 40834)	1	0.27	0.83	
CG3769 (GeneID 34262)	1	0.11	0.1	
Sas10 (GeneID 31447)	1	0.26	-0.75	
CG4866 (GeneID 36976)	1	0.32	0.42	
ttm3 (GeneID 35437)	1	1.37	0.17	
CG34458 (GeneID 5740868)	1	0.23	0.26	
CG7778 (GeneID 34147)	1	-0.07	0.31	
kmg (GeneID 34706)	1	0.06	0.22	
Dolk (GeneID 36856)	1	0.02	0.28	
msb1l (GeneID 35254)	1	0.38	0.39	
eIF2beta (GeneID 39433)	1	-5.66	-3.6	
CG8292 (GeneID 34125)	1	0.23	0.4	
Drice (GeneID 43514)	1	0.23	0.39	
CG33235 (GeneID 2768871)	1	0.35	0.47	
CG9626 (GeneID 40979)	1	0.38	0.12	
rho (GeneID 38168)	1	0.17	0.09	
stx (GeneID 32005)	1	-1.54	-1	
stx (GeneID 32005)	2	-0.41	-0.36	
CG14642 (GeneID 40532)	1	0.21	0.33	
Reg-2 (GeneID 38075)	1	0.25	0.33	
Sld5 (GeneID 43166)	1	0.42	0.44	
CG14974 (GeneID 50167)	1	-0.02	-0.06	
Dnaaf4 (GeneID 34547)	1	0.35	0.16	
sdk (GeneID 31017)	1	0.4	0.03	
CG31370 (GeneID 43060)	1	1.17	1.38	
CG8736 (GeneID 35841)	1	0.15	0.31	
mbm (GeneID 33194)	1	0.16	0.34	
CG43366 (GeneID 35519)	1	0.45	0.27	
CG43366 (GeneID 35519)	2	0.21	0.15	
CG33263 (GeneID 2768952)	1	0.25	0.28	
CG13319 (GeneID 36423)	1	0.7	0.63	
CG5973 (GeneID 34023)	1	0.11	0.36	
Taf12L (GeneID 33672)	1	0.46	0.45	
pes (GeneID 34087)	1	0.07	0.07	
CG42673 (GeneID 39111)	1	0.38	0.44	
CG42673 (GeneID 39111)	2	-3.96	-2.93	
CG42673 (GeneID 39111)	3	-0.78	-0.15	
CG42673 (GeneID 39111)	4	-0.25	0.24	
CG42673 (GeneID 39111)	5	0.37	0.1	
CG42673 (GeneID 39111)	6	0.41	0.44	
PPYR1 (GeneID 32453)	1	0.44	0.55	
esn (GeneID 53557)	1	-1.76		
esn (GeneID 53557)	2	0.63	0.44	
esn (GeneID 53557)	3	0.42	0.26	
CG33491 (retired record) + CG33496 (retired record) + CG33487 (retired record) + 1 more	1	-0.77	-0.4	
CG16813 (GeneID 34724)	1	0.33	0.5	
CG32485 (GeneID 38363)	1	-0.19	0.14	
CG30385 (GeneID 246585)	1	0.29	0.21	
CG31431 (GeneID 326138)	1	0.35	0.51	
CG6236 (GeneID 41857)	1	0.43	0.45	
wrm1 + wrm2	1	0.5	0.69	
CG32198 (GeneID 317909)	1	0.35	0.34	
eater (GeneID 43262)	1	-0.43	0.47	0.35
eater (GeneID 43262)	2	-0.42	0.23	
CG30394 (GeneID 37437)	1	0.35	0.51	
CG30394 (GeneID 37437)	2	0.37	0.43	
Kr-h2 (GeneID 33859)	1	0.11	0.06	
Ir62a (GeneID 3885628)	1	0.34	0.36	
Gr32a (GeneID 34545)	1	0.28	0.42	
CG31126 (GeneID 326121)	1	0.4	0.33	
CG11327 (GeneID 33940)	1	0.16	0.09	
mino (GeneID 43350)	1	0.25	0.39	
CG31050 (GeneID 318571)	1	-0.34	0.32	
CG16935 (GeneID 36540)	1	-0.17	0.04	
Dus4 (GeneID 35179)	1	0.19	0.16	
CG33640 (GeneID 3772680)	1	0.49	0.14	
CG17019 (GeneID 36425)	1	0.37	0.49	
MFS1 (GeneID 246519)	1	0.06	0.22	
RhoGAP16F (GeneID 32790)	1	0.27	0.11	
Ccp84Aa (GeneID 40825)	1	0.32	0.76	
Past1 (GeneID 41569)	1	0.38	0.45	
CG6337 (GeneID 36530)	1	0.37	0.37	
CG6337 (GeneID 36530)	2	-0.46	0.39	
Vps8 (GeneID 38735)	1	0.4	0.29	
CG13108 (GeneID 34240)	1	-0.05	-0.02	
bs (GeneID 37890)	1	0.42	0.13	0.28
CG10562 (GeneID 43066)	1	0.11	0.43	
TER94 (GeneID 36040)	1	-4.68	-4.6	
CG42471 (GeneID 8674020)	1	0.41	0.25	
eIF4G2 (GeneID 42819)	1	0.2	0.21	
eIF4G2 (GeneID 42819)	2	-0.59	0.62	
Tl (GeneID 43222)	1	0.35	0.47	
